PubChem BioAssay AID1508597 – Cure First, 2020
Purpose: 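Genes whose silencing sensitises or protects ovarian cancer cells against rucaparib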 (primary screen). Cells: human ovarian carcinoma lines grown from tumours: OCI-P5x (papillary serous) and OCI-C5x (clear cell). Knock-down reagent: siRNA pool against human genes, 1.25 pmol siRNA per well. Duration: 72 h or 96 h, depending on the cell culture. Treatment: rucaparib 20 µM (about IC30) or vehicle, present until read-out. Rucaparib or vehicle: Rucaparib. Cell line: OCI-P5x (serous). Read-out: 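ATP luminescence measured at 72 or 96 h according to the culture, then normalised and expressed as percent viability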. Direction: viability, normalised: higher = more viable cells remaining. Hit rule: 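Active when normalised viability falls below 80 percent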. Meaning of the calls: active = viability under 80%; inactive = viability 80% or more.
This is a random part of the about 2,100 reagents, under one of the conditions tested. 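Calls flag viability under 80% in either arm, not effects specific to rucaparib; the reference for percent is not stated.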 A reagent listed more than once was tested more than once; the source does not tell the runs apart. The record does not give: the 100% reference.

gene knocked down	technical replicate	viability, normalised (%)	outcome
RPA3	1	76.3	active
RPA3	2	79.2	active
RPA3	3	71	active
TSPYL4	1	60	active
TSPYL4	2	35	active
TSPYL4	3	59.6	active
TAOK3	1	105	inactive
TAOK3	2	84.2	inactive
TAOK3	3	61.2	active
SMARCE1	1	55.2	active
SMARCE1	2	62.1	active
SMARCE1	3	67	active
SPEG	1	99.8	inactive
SPEG	1	68.3	active
SPEG	2	65.5	active
SPEG	2	92.9	inactive
SPEG	3	58	active
SPEG	3	84.9	inactive
PTEN	1	53.1	active
PTEN	2	75.8	active
PTEN	3	75.6	active

7 entries from above, set out differently:
{"gene knocked down": "SPEG", "technical replicate": "1", "viability, normalised (%)": 99.8, "outcome": "inactive"}
{"gene knocked down": "SPEG", "technical replicate": "1", "viability, normalised (%)": 68.3, "outcome": "active"}
{"gene knocked down": "SPEG", "technical replicate": "2", "viability, normalised (%)": 65.5, "outcome": "active"}
{"gene knocked down": "SPEG", "technical replicate": "2", "viability, normalised (%)": 92.9, "outcome": "inactive"}
{"gene knocked down": "SPEG", "technical replicate": "3", "viability, normalised (%)": 58, "outcome": "active"}
{"gene knocked down": "SPEG", "technical replicate": "3", "viability, normalised (%)": 84.9, "outcome": "inactive"}
{"gene knocked down": "PTEN", "technical replicate": "1", "viability, normalised (%)": 53.1, "outcome": "active"}

Further entries follow.
gene knocked down	technical replicate	viability, normalised (%)	outcome
PRMT7	1	50.1	active
PRMT7	2	46.8	active
PRMT7	3	42.6	active
HMG20B	1	65.8	active
HMG20B	2	84.3	inactive
HMG20B	3	63.9	active
SET	1	65.4	active
SET	2	70.2	active
SET	3	74.5	active
PINK1	1	109	inactive
PINK1	2	98.7	inactive
PINK1	3	89.5	inactive
FANCF	1	64.6	active
FANCF	2	72.5	active
FANCF	3	64.9	active
MTHFR	1	77.4	active
MTHFR	2	79.8	active
MTHFR	3	70.6	active
NTHL1	1	102	inactive
NTHL1	2	87.4	inactive
NTHL1	3	61.1	active
CHD1L	1	84.7	inactive
CHD1L	2	52.8	active
CHD1L	3	77.4	active
LY6E	1	53.4	active
LY6E	2	71.1	active
LY6E	3	62.8	active
RPS6KA4	1	65	active
RPS6KA4	2	78.2	active
RPS6KA4	3	71.5	active
BRWD1	1	72.6	active
BRWD1	2	88.2	inactive
BRWD1	3	86.3	inactive
TGFB1	1	71.8	active
TGFB1	2	66	active
TGFB1	3	64.5	active
